Results are given in words; binding and its absence hold for the method and conditions named. Some binding calls cover weakened binding; strength is not graded here.
How the values were obtained:
[1] = target: crab-eating macaque CLDN-5 protein (crab-eating macaque); assay: FACS on CLDN-5-expressing cells, antibody 5 µg/mL
[2] = target: wild-type human CLDN-5 protein (human) (UniProt O00501); assay: FACS on CLDN-5-expressing cells, antibody 5 µg/mL
[3] = target: wild-type human CLDN-5 protein (human) (UniProt O00501); assay: FACS, hybridoma supernatant on CLDN-expressing cells
[4] = target: mouse CLDN-5 protein (mouse) (UniProt O54942); assay: as above

The chains behind the UniProt entries cited, without tags or fusion partners. Where a name states a change or a piece, a line headed by the entry shows the natural chain unless it says otherwise.
UniProt O00501: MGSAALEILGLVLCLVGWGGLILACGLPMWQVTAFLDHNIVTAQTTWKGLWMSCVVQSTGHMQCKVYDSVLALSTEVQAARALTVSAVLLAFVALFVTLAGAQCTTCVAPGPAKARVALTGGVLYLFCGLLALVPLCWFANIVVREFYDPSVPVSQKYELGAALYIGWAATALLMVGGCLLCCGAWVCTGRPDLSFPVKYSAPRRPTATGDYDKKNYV
UniProt O54942: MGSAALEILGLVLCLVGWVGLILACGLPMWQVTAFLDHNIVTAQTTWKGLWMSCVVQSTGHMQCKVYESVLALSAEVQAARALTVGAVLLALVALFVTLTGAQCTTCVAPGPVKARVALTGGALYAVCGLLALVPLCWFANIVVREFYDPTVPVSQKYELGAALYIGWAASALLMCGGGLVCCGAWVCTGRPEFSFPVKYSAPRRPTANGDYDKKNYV

Measured: binding

B1: mouse anti-CLDN-5 antibody M48 (antibody, mouse IgG3, V domains shown)
VH: QAYLQQSGAELVRPGASVKMSCKASGYTFTSYNMHWVKKTRRQGLEWIGAISPGNGNTSYNQKFKGKATLTVDKSSSTAYMQLSSLTSEDSAVYFCARDDGYYGALDYWGQGTSVTVSS
VL: DIVLTQSPATLSVTPGESVSLSCRASQGISTSIHWYQQKSNESPRLLIRYASQSISRIPSRFSGSGSGTDFTLTINGVESEDLSVYYCQQSYNLPLTFGSGTKLEI
binds: all assays above

B2: rat anti-CLDN-5 antibody R2 (antibody, rat IgG2a, V domains shown)
VH: QVQLKESGPGLVQPSQTLSLTCTVSGLSLIRNSVSWIRQPPGKGLEWMGVIWSNGGTEYNSTVKSRLSISRDTSKNQVFLKMNSLQTEDSAMFFCARTPDGYYPYFDYWGQGVMVTVSS
VL: DIVLTQSPATLSVTPGESVSLSCRASQGISTSIHWYQQKSNESPRLLIRYASQSISRIPSRFSGSGSGTDFTLTINGVESEDLSVYYCQQSYNLPLTFGSGTKLEI
binds: [1] | [2] | [3]
